Data from publication PMC5855799.

By UniProt entry, the sequences of proteins in these tests, tags left out. Residues count along the entry.
UniProt P05787: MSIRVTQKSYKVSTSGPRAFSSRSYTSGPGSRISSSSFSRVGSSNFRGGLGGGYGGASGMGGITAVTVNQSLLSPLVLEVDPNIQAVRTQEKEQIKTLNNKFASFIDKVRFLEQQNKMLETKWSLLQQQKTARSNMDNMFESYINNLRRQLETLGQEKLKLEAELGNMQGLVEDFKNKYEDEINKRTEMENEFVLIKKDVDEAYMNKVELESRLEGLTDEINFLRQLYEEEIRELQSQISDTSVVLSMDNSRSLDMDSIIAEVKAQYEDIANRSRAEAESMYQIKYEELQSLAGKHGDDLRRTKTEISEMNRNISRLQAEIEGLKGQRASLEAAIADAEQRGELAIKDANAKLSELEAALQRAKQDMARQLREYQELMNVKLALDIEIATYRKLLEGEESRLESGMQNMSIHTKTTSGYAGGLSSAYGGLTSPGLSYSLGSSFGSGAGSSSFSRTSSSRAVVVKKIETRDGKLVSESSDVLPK
UniProt P02751, residues 32-2477: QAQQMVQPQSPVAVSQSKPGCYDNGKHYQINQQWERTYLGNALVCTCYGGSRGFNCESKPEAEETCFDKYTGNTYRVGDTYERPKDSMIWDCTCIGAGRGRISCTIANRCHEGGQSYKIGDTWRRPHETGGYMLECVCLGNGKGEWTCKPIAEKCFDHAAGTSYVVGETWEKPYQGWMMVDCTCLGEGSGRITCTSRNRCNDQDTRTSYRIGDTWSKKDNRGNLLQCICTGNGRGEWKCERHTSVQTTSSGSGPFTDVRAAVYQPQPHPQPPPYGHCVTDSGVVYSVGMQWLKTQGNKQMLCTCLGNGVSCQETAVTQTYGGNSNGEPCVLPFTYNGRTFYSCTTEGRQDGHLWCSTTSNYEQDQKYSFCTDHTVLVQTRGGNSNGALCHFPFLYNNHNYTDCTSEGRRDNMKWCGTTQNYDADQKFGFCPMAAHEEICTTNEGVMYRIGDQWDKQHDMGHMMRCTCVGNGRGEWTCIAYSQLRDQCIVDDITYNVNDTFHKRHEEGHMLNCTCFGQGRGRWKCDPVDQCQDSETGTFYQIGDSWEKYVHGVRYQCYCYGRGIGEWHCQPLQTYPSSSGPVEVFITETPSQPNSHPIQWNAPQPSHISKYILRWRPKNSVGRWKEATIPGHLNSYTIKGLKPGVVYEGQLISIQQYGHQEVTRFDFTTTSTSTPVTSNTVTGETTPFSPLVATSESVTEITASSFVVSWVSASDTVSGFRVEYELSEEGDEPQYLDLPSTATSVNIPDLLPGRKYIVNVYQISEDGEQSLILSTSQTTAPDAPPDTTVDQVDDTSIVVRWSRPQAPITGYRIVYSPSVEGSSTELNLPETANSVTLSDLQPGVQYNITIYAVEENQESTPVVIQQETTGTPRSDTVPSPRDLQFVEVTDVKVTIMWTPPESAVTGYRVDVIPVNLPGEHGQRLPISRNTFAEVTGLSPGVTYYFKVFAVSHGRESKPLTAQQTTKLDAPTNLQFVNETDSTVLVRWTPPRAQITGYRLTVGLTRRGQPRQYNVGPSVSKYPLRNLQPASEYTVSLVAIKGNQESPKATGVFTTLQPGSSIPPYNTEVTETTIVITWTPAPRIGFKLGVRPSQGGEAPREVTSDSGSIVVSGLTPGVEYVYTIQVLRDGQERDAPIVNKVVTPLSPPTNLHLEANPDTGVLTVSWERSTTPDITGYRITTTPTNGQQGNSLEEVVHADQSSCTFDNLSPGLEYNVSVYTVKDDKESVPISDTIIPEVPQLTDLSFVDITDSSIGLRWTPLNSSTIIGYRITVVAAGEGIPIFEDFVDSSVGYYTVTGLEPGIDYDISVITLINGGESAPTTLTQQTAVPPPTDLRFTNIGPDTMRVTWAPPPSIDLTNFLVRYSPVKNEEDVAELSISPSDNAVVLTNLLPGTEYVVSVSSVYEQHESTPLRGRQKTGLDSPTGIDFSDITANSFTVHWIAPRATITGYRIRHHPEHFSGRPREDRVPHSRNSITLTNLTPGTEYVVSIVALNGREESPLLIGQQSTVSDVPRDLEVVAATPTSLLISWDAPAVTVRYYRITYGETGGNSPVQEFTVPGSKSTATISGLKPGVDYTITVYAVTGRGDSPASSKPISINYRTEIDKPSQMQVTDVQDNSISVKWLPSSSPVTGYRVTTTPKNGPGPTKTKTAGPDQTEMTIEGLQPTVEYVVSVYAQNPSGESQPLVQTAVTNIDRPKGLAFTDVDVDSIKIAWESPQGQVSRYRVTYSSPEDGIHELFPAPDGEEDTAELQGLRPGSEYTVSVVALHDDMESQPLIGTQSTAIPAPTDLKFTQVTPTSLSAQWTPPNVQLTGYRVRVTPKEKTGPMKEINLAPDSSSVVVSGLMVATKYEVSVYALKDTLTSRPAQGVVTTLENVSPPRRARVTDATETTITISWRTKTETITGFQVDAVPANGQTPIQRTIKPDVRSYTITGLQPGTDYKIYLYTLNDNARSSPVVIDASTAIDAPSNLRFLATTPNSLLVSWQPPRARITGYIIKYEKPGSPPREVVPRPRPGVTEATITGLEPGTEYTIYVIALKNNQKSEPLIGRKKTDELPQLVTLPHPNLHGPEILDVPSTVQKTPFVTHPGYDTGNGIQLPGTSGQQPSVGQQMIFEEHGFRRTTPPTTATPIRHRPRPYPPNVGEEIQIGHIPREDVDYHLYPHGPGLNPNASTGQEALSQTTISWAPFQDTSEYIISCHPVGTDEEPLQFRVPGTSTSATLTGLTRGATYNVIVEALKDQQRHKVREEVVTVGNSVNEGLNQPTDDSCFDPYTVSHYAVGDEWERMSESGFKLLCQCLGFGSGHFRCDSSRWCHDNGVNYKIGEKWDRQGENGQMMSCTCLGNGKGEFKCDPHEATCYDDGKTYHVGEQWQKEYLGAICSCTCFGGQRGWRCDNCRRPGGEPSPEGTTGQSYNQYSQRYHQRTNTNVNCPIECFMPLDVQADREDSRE
UniProt O60437: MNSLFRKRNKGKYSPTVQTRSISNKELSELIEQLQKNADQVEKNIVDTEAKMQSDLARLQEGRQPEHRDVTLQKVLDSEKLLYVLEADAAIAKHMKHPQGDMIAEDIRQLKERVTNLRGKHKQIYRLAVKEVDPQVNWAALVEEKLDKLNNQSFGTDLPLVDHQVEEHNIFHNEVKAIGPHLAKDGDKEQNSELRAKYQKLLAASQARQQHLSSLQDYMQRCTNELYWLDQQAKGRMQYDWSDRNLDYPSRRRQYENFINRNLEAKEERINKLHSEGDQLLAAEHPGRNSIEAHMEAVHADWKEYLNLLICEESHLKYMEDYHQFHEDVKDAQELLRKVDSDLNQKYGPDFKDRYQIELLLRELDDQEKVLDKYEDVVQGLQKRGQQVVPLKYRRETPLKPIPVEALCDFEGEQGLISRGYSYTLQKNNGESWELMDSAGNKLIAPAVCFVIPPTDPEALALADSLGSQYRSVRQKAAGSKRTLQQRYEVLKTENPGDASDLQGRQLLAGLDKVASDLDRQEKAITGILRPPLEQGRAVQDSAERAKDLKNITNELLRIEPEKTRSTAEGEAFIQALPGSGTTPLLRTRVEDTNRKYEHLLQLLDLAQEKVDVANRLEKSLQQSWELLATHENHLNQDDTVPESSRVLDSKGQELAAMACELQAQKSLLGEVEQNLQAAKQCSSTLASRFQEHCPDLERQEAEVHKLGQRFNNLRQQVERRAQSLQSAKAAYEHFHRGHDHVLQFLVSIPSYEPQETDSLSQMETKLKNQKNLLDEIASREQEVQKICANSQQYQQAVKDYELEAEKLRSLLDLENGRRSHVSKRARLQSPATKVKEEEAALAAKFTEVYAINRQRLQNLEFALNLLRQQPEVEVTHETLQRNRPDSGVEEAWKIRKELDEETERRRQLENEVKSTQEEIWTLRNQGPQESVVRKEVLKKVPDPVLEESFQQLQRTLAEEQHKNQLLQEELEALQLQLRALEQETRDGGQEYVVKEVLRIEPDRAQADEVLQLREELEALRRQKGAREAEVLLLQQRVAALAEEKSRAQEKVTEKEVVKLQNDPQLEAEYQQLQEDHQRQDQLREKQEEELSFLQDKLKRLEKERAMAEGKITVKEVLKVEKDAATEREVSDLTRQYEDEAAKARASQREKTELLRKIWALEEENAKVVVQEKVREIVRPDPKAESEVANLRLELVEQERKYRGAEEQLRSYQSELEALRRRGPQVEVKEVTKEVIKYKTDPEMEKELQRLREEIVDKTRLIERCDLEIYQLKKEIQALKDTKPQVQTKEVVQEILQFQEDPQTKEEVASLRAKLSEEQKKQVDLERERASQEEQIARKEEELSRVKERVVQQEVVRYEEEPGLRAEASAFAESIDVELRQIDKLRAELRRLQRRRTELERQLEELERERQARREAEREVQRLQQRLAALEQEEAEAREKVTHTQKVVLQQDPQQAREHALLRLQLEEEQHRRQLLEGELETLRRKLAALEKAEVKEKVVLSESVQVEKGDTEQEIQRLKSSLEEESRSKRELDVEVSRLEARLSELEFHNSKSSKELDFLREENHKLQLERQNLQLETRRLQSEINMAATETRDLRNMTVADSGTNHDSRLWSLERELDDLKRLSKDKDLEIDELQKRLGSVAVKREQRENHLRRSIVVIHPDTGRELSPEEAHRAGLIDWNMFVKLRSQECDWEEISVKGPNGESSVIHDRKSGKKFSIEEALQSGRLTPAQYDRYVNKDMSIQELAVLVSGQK

Target: Keratin-8 (human (endogenous in ACT1)) (UniProt P05787)
Experiment: affinity purification with mass spectrometry; ACT1 whole-cell lysate probed with anti-KRT8 antibody covalently bonded to magnetic beads; eluate separated by PAGE, in-gel tryptic digestion, HPLC/tandem mass spectrometry

binding	Substance
binds	fibronectin (from UniProt P02751 32-2477)
binds	periplakin (from UniProt O60437 1-1756)

Results are given in words; binding and its absence hold for the method and conditions named. Binding seen in cells or lysates may run through a third protein. Here binding means that the protein was enriched with, or labelled near, the bait; the list need not be complete.
